Where “and” joins values, the source holds several entries; their conditions need not be identical. Identical values can stand only once. The list shows a part of the results. Most values come without repeats; read them as rough.
These molecules were tested on MEPP (mouse ovarian epithelium Trp53/Pten KO) (assay: cell viability relative to untreated (fraction); higher = less growth inhibition). Settings: 5 µM; 3 days.

Row | Compound | cell viability
1 | Cn1nnc(-c2ccc(-c3ccc(N4C[C@H](CO)OC4=O)cc3F)cn2)n1 | 0.815 and 1.03
2 | O=C1C[C@@H](c2ccc(O)c(O)c2)Oc2cc(O)cc(O)c21 | 0.93
3 | CC(=O)OCC(=O)[C@@]1(O)CC[C@H]2[C@@H]3CCC4=CC(=O)CC[C@]4(C)[C@H]3C(=O)C[C@@]21C | 0.994
4 | O=C(O)C1=C[C@@H](O)[C@@H](O)[C@H](O)C1 | 1.13
5 | O=C(O)CNC(=O)c1ccccc1 | 0.86
6 | c1ccc(CNc2ncnc3[nH]cnc23)cc1 | 0.343
7 | COC(=O)N/N=C/c1c[n+]([O-])c2ccccc2[n+]1[O-] | 1.09
8 | CC(=O)OCC(=O)[C@@]1(O)[C@H](C)C[C@H]2[C@@H]3CCC4=CC(=O)C=C[C@]4(C)[C@@]3(F)[C@@H](O)C[C@@]21C | 1.13
9 | COc1ccc(C=CC(=O)O)cc1O | 1.59
10 | CN(C(=O)c1c(O)c2ccccc2n(C)c1=O)c1ccccc1 | 0.735
11 | C[C@H]1[C@H](C)CC[C@]2(C(=O)O[C@@H]3O[C@H](CO[C@@H]4O[C@H](CO)[C@@H](O[C@@H]5O[C@@H](C)[C@H](O)[C@@H](O)[C@H]5O)[C@H](O)[C@H]4O)[C@@H](O)[C@H](O)[C@H]3O)CC[C@]3(C)C(=CC[C@@H]4[C@@]5(C)C[C@@H](O)[C@H](O)[C@@](C)(CO)[C@@H]5[C@H](O)C[C@]43C)[C@H]12 | 1.25
12 | COc1c(O)cc(O)c2c(=O)cc(-c3ccccc3)oc12 | 1.66
13 | Nc1nc(=O)c2nc(CNc3ccc(C(=O)N[C@@H](CCC(=O)O)C(=O)O)cc3)cnc2[nH]1 | 0.935
14 | CO[C@@H]1[C@@H](OC(N)=O)[C@@H](O)[C@H](Oc2ccc3c(O)c(NC(=O)c4ccc(O)c(CC=C(C)C)c4)c(=O)oc3c2C)OC1(C)C | 0.855
15 | NC(=O)NCCC[C@H](N)C(=O)O | 1.08
16 | COc1ccc2c(C)cc(=O)oc2c1 | 0.874
17 | NCCCC(N)C(=O)O (centres undefined) | 1.18
18 | CC[C@H]1OC(=O)C[C@@H](O)[C@H](C)[C@@H](O[C@@H]2O[C@H](C)[C@@H](O[C@H]3C[C@@](C)(O)[C@@H](O)[C@H](C)O3)[C@H](N(C)C)[C@H]2O)[C@@H](CC=O)C[C@@H](C)C(=O)/C=C/C(C)=C/[C@@H]1CO[C@@H]1O[C@H](C)[C@@H](O)[C@@H](OC)[C@H]1OC | 0.897
19 | Cn1cnc2c1c(=O)[nH]c(=O)n2C | 1.04
20 | N[C@@H](COP(=O)(O)O)C(=O)O | 0.815

Row | Compound | cell viability
21 | NC(=O)CC[C@H](NC(=O)Cc1ccccc1)C(=O)O | 0.897
22 | CCCCCCCCCCCCCCCCCCCC(=O)O | 1.09
23 | C[C@]12CC[C@@H]3c4ccc(O)cc4CC[C@H]3[C@@H]1CC[C@@H]2O | 1.09 and 0.669
24 | COc1cc(O)ccc1/C=C/C(=O)c1ccc(O)cc1 | 1.29
25 | Oc1cc(O)cc(/C=C/c2ccc(O)c(O)c2)c1 | 0.913
26 | O=C(O)CCC(=O)O | 0.918
27 | O=c1ccc2ccc(O)cc2o1 | 0.851
28 | O=C(CCc1ccc(O)cc1)c1c(O)cc(O)cc1O | 1.09
29 | CCOC(N)=O | 1.09
30 | Oc1cc(O)c2c(c1)O[C@H](c1cc(O)c(O)c(O)c1)[C@H](O)C2 | 0.842
31 | Oc1cc(O)c2cc(O)c(-c3ccc(O)c(O)c3)[o+]c2c1 | 1.08
32 | CN1CCc2cc3c(cc2C(=O)Cc2cc4c(cc2C1)OCO4)OCO3 | 0.809
33 | Cc1c[nH]c2ccccc12 | 1.29
34 | C[C@@H]1C/C=C/C=C/C=C/C=C/[C@H](O[C@@H]2O[C@H](C)[C@@H](O)[C@H](N)[C@@H]2O)C[C@@H]2O[C@](O)(C[C@@H](O)C[C@H]3O[C@@H]3/C=C/C(=O)O1)C[C@H](O)[C@H]2C(=O)O | 1.03
35 | C=CCSCC=C | 0.884
36 | NC(N)=NCC(=O)O | 0.935
37 | CC(C)=CCOc1ccc(/C=C/C(=O)c2ccc(OCC=C(C)C)cc2OCC(=O)O)cc1 | 0.835
38 | OCc1c[nH]c2ccccc12 | 0.796
39 | Nc1ccc(C(=O)O)cc1 | 1.1

Reference: the supplement of paper PMC12873370
